No constants are given. Whether binding was seen depends on the method and setting. For some assays here: In cells and extracts the contact can be indirect. Some binding calls cover weakened binding; strength is not graded here.
What was measured:
[1] = target: MYB46 (yeast two-hybrid bait) (Arabidopsis thaliana) (UniProt Q9LXV2); assay: two-hybrid; MYB46 as bait, CAMPK6 as prey; yeast AH109; spot assay on SD -Leu -Trp -His with 1 mM 3AT
[2] = target: CAMPK6-HA (Arabidopsis thaliana) (UniProt Q39026); assay: co-IP; MYB46-GFP and CAMPK6-HA co-expressed in Arabidopsis mesophyll protoplasts with MG132; immunoprecipitation with anti-HA antibody, blot with anti-GFP antibody

The chains behind the UniProt entries cited, without tags or fusion partners. Where a name states a change or a piece, a line headed by the entry shows the natural chain unless it says otherwise. A line that says so, or that is headed by a name, gives the form on record, which may keep a tag or linker.
UniProt Q9LXV2: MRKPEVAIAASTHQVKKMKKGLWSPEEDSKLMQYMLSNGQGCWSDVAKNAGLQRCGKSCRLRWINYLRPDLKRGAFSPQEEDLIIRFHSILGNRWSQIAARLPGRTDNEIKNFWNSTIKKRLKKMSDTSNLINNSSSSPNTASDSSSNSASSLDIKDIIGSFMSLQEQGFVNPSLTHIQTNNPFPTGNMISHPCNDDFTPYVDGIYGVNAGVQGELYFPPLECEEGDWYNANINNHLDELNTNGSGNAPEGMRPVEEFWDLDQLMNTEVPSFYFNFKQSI
UniProt Q39026: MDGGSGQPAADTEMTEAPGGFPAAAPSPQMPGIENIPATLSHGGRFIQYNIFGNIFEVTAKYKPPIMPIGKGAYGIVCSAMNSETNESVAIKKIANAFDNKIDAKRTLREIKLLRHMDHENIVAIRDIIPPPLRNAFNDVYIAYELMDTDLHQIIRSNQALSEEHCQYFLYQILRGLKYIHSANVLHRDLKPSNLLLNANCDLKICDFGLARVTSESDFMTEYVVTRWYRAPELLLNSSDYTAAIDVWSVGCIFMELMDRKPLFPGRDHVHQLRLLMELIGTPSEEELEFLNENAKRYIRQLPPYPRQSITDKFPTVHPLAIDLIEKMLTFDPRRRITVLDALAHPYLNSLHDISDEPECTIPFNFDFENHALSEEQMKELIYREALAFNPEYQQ
CAMPK6-HA (Q39026, form named): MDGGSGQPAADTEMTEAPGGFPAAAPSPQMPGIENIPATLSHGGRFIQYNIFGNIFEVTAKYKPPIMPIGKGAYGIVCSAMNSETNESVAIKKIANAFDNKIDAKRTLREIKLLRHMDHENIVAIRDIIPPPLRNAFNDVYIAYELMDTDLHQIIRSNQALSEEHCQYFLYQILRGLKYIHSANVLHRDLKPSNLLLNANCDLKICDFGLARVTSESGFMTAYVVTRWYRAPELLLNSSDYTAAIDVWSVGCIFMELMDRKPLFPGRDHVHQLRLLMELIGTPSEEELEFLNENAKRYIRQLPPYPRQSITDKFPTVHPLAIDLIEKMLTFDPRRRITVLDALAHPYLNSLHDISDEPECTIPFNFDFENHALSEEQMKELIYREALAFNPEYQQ

Substance	binding [1]	binding [2]
CAMPK6, constitutively active form of MPK6 (MPK6 D218G, E222A) (yeast two-hybrid prey) (from UniProt Q39026 1-395) (enzyme)	binds	
MYB46-GFP (from UniProt Q9LXV2 1-280)		binds

— publication PMC8055014
